For one substance, binding results are on record in paper PMC10424150.

By UniProt entry, the sequences of proteins in these tests, tags left out.
UniProt Q14160: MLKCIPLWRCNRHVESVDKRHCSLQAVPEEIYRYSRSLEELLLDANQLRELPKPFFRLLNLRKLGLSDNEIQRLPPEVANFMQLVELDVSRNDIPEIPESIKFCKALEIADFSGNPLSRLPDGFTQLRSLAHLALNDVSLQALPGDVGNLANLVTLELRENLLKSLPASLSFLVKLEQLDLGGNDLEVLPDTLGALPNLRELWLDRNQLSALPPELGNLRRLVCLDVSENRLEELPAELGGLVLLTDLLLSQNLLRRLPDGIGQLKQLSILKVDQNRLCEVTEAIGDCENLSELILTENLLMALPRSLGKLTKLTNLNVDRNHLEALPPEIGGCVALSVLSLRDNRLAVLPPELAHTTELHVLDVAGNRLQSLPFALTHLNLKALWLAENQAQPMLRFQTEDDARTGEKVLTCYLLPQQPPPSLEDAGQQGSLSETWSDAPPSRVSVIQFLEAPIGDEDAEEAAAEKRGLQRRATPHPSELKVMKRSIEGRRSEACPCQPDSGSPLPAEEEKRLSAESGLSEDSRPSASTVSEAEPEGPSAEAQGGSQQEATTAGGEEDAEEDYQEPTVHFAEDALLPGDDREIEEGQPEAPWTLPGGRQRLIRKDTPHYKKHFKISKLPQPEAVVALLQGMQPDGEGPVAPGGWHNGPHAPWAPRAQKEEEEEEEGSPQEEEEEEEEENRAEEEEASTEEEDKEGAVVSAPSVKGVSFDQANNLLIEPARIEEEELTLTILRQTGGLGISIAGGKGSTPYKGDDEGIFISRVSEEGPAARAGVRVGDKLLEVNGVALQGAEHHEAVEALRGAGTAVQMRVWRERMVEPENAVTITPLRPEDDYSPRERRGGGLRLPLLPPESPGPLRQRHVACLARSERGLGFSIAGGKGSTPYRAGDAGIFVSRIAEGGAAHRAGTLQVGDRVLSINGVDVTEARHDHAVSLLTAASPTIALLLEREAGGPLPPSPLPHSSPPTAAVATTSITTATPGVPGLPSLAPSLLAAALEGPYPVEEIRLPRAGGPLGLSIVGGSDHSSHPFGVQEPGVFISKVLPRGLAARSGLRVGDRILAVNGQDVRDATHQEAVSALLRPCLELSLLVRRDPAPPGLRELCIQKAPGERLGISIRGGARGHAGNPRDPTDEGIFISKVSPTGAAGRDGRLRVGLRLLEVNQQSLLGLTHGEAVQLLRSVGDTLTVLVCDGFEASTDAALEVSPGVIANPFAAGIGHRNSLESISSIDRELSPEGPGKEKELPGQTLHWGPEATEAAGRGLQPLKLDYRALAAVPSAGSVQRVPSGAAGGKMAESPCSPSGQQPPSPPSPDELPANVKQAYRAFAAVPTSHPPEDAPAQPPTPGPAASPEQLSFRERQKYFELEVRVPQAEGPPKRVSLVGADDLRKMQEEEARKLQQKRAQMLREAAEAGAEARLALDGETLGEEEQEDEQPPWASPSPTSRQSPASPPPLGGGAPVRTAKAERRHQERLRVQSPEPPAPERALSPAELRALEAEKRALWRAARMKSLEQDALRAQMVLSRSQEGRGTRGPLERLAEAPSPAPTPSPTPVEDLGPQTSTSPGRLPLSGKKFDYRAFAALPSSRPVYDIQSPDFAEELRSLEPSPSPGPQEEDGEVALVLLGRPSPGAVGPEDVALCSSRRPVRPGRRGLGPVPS

The assay addresses T1, FLAG-TRAF7, full-length human TRAF7 (human) (UniProt Q6Q0C0).
T1 sequence: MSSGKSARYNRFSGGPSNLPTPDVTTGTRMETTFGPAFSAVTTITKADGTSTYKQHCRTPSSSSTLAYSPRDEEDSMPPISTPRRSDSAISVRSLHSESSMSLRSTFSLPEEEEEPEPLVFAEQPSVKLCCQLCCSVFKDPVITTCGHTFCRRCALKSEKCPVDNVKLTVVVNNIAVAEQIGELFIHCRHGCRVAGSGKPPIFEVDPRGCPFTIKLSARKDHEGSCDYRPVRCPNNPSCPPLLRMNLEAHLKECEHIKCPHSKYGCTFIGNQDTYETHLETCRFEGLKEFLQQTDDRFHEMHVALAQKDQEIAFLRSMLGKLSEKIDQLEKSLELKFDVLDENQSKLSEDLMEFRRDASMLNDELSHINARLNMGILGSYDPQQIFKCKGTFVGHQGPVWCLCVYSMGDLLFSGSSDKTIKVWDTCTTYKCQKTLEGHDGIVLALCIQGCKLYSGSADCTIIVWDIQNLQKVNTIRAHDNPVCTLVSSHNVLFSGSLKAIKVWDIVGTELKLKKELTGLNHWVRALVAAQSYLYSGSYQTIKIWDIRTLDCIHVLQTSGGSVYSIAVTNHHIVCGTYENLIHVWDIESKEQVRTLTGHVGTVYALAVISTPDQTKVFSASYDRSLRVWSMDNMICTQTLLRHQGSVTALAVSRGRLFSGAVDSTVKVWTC
The experiment in a line: affinity purification with mass spectrometry; FLAG-TRAF7 precipitates from HEK293 on anti-FLAG beads, gel segments digested with trypsin, ion trap MS/MS; proteins precipitated with BAP beads subtracted.

Results are given in words; binding and its absence hold for the method and conditions named. Binding seen in cells or lysates may run through a third protein. Here binding means that the protein was enriched with, or labelled near, the bait; the list need not be complete. Sequences can lack the tags named with a protein.

For the substance “planar cell polarity protein scribble homolog (SCRIB), endogenous (from UniProt Q14160 1-1655)”, the binding entry is given as “binds”.
